According to US20030055065A1, “Tricyclic amide and urea compounds useful for inhibition of G-protein function and for treatment of proliferative diseases” (priority 1993, published 2003):
Not every entry of the source has a single result; some have several. This list holds those alone. An entry can have further records. Values given together seem to repeat one measurement (runs, samples, wells or individuals).

System: Ras-CVLS processing in COS monkey kidney cells
Test: COS cell assay: Ras-CVLS processing (Western blot)
Type: cell-based
Details: read-out: Inhibition of Ras Processing IC50

O=C(Cc1ccncc1)N1CCC(=C2c3ccc(Cl)cc3C=Cc3cccnc32)CC1 [Example 307]
IC50: 4.6 µM and 850 nM
